Experimental data published in PubChem BioAssay AID2685 (National Center for Advancing Translational Sciences (NCATS), 2010).
The campaign covered roughly 320,000 compounds. About 2,100 (0.66%) were called active. The inconclusive results got no clear call from the source; some entries with a clear call stand among them for comparison. Calls follow the shape of the dose curve; as a rule, active = well fitted inhibition curve with a large enough effect in the signal ratio, with a control signal flat (not every such curve was filed as active); inconclusive = small, poorly fitted or top-dose-only effect, or effect the other way, or a change in a side signal; inactive = flat fitted curve, though single readings scatter; the % refers to the signal ratio. Potencies of inconclusive entries are doubtful fits and often do not repeat.

Assay: qHTS Assay for Lipid Storage Modulators in Drosophila S3 Cells
Settings: BODIPY lipid droplet fluorescence, 18-24 h, cells fed with added oleic acid; lipid storage change, negative = inhibition: at 46.1 µM (top of the series) unless noted
Outline: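 Drosophila S3 cells loaded with oleic acid (400 uM, as added) and compounds at several concentrations; lipid droplets imaged by 488-nm laser-scanning cytometry, 500–530 nm intensity and object ratio to cell channel. Percent activity normalized to 20 uM Triacsin C.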
% is scaled to controls: 0 for no effect and ±100 for the full control effect; potency is read from the fitted curve at half-maximal effect.

Compound	lipid storage change, negative = inhibition	Potency
Cc1ccc(NC(=O)c2cc(-c3cccs3)nc3ccccc23)nc1	inconclusive: 11.3%	
O=C(NCc1n[nH]c(=S)n1-c1cccc(C(F)(F)F)c1)c1ccc(S(=O)(=O)N2CCCCC2)cc1		inconclusive: 5.17 µM [falling, full curve, poor fit]
O=S(=O)(c1cccs1)N1CCC2(CC1)OCCO2		inconclusive: 0.206 µM [activator, partial curve, poor fit]
COc1ccc(CC(=O)NC(C)c2ccc(S(N)(=O)=O)cc2)cc1S(=O)(=O)N1CCOCC1 (stereo unspecified)		inconclusive: 0.13 µM [activator, full curve, poor fit]
Cc1ccc2nc(NCc3ccccc3)[nH]c2c1		inconclusive: 29.1 µM [activator, single point]
Cc1ccc(S(=O)(=O)N(C)c2ccc(C(=O)N3CCCCC3)cc2)cc1	inconclusive: 323%	
COc1ccc(-c2nonc2NC(=O)c2oc3ccccc3c2C)cc1OC	inconclusive: -55.4%	
COc1ccc2c(c1)CC[C@@H]1[C@@H]2CC[C@]2(C)[C@@H](C(C)=O)C[C@@H]12	inconclusive: 9.41%	
COc1ccccc1NCC(=O)NNC(C)C(=O)Nc1cccc(Cl)c1 (stereo unspecified)		inconclusive: 0.116 µM [rising, single point]
O=C(OCc1ccccn1)c1ccc(COc2ccc3ccccc3c2)o1	inconclusive: 25.6%	
CC(=O)c1cnc(Nc2nc(C)c3cc(C)c(C)cc3n2)nc1C	inconclusive: 33%	
COc1ccc(-c2csc3ncnc(N4CCN(c5ccccc5Cl)CC4)c23)cc1		inconclusive: 25.9 µM [rising, partial curve, poor fit]
O=C(Oc1ccc(N(C(=O)c2ccncc2)S(=O)(=O)c2ccc(F)cc2)cc1)c1ccncc1	inactive	
O=[N+]([O-])c1ccc(N2CCC(O)CC2)nc1		inconclusive: 29.1 µM [cytotoxic, single point]
COc1ccc(NC(=O)CCCNC(=O)Cn2cnc3sc(C)c(C)c3c2=O)c(OC)c1	inconclusive: -33.9%	
O=C(NC1CCCCCC1)c1c2c(nc3ccccc13)CCN(Cc1ccccc1)C2		inconclusive: 32.6 µM [activator, single point]
Cc1nc(NC2CCCC2)sc1C(=O)N(C)C		inconclusive: 1.64 µM [falling, partial curve]
CN(C)S(=O)(=O)c1ccc(C(=O)OCC(=O)Nc2ccc3c(c2)OCO3)cc1	inconclusive: 10.4%	
Cc1cccc(C)c1NC(=O)C1CC(=O)N(C(C)C)C1 (stereo unspecified)	inconclusive: 19.9%	
Cn1cc(S(=O)(=O)N2CCN(C(=O)c3ccco3)CC2)c(=O)n(C)c1=O	inconclusive: -5.97% [at 9.22 µM]	
CC1CC(C)(C)CC2(C1)NC(=O)N(CC(=O)N(Cc1ccccc1)c1ccccc1)C2=O (stereo unspecified)		inconclusive: 5.8 µM [falling, full curve, poor fit]

Compound	lipid storage change, negative = inhibition	Potency
CCCNC(=O)NC(=O)CSc1cccc(C(F)(F)F)c1	inconclusive: -10.3%	
COc1ccc(NC(=O)C2CCCN(S(=O)(=O)c3cnc[nH]3)C2)cc1 (stereo unspecified)	inconclusive: 5.71%	
Cc1occc1C(=O)N1CCN(C(=O)C2CCCO2)CC1 (stereo unspecified)	inconclusive: -29.7%	
CCNC(=O)N1CCOCC1	inconclusive: -160%	
CC(C)n1nnnc1SCC(=O)NCc1cccs1	inconclusive: -35.4%	
Cc1ccccc1NC(=O)OCCN1CCN(Cc2ccccc2)CCC1=O	inconclusive: 30.8%	
CCCOP(=O)(OCCC)c1nc(-c2ccccc2)oc1NCc1ccccc1	inconclusive: 23.1%	
O=C(Nc1ccc(Cl)c(Cl)c1)Nc1nnc(-c2ccncc2)s1		inconclusive: 2.59 µM [rising, full curve, poor fit]
CCn1c(N2CCN(S(=O)(=O)c3ccccc3C(F)(F)F)CC2)nc2ccccc21	inconclusive: 28.9%	
S=C(NC1CCCCC1)N1CCc2ccccc2C1	inconclusive: 4.24%	
COc1ccc(CN2CCN(C(=O)c3ccc(CNS(=O)(=O)c4ccc(C)cc4)cc3)CC2)c(OC)c1OC		inconclusive: 18.4 µM [activator, partial curve]
Cc1cc(C=C2C(=O)c3ccccc3C2=O)c(C)n1C	inconclusive: -42.7%	
CCOC(=O)C1=C(CC)OC(N)=C(C#N)C1c1ccc(OC)c(C)c1OC (stereo unspecified)	inconclusive: 24.8%	
Nc1nnc(CC(=O)N/N=C/c2cccc([N+](=O)[O-])c2)s1	inconclusive: 52.8%	
COc1ccc(C(=O)Nc2cccc(/C(C)=N\NC(=O)c3ccoc3C)c2)cc1OC	inconclusive: 57%	
Cc1ccc(C(=O)NCC2CCCO2)cc1N1CCCC1=O (stereo unspecified)	inconclusive: -73.4%	
NC(=O)CC(NC(=O)Cc1ccc(Br)cc1)c1ccc(NCc2ccccn2)c([N+](=O)[O-])c1 (stereo unspecified)		inconclusive: 7.31 µM [activator, partial curve]
C=CCNC(=S)/C(=C(/[O-])c1ccccc1Br)[n+]1ccccc1	inconclusive: 48%	
Cc1nnc(-c2ccccc2)c[n+]1[O-]	inconclusive: 19.7%	
Cc1cc2nc3n(c2cc1C)CC1CC(C(=O)NCc2cccc(Br)c2)N(C)C31 (stereo unspecified)		inconclusive: 0.0073 µM [activator, full curve, poor fit]
COc1ccc2oc(C(=O)OCC(=O)N(CCC#N)c3ccccc3)c(C)c2c1	inconclusive: 7.29%	

Sorted by count of non-hydrogen atoms (smallest number first): some entries from above
Compound	lipid storage change, negative = inhibition	Potency
CCNC(=O)N1CCOCC1	inconclusive: -160%	
Cc1nnc(-c2ccccc2)c[n+]1[O-]	inconclusive: 19.7%	
CC(C)n1nnnc1SCC(=O)NCc1cccs1	inconclusive: -35.4%	
Cc1cc(C=C2C(=O)c3ccccc3C2=O)c(C)n1C	inconclusive: -42.7%	
Nc1nnc(CC(=O)N/N=C/c2cccc([N+](=O)[O-])c2)s1	inconclusive: 52.8%	
C=CCNC(=S)/C(=C(/[O-])c1ccccc1Br)[n+]1ccccc1	inconclusive: 48%	
O=C(Nc1ccc(Cl)c(Cl)c1)Nc1nnc(-c2ccncc2)s1		inconclusive: 2.59 µM [rising, full curve, poor fit]
COc1ccc(NC(=O)C2CCCN(S(=O)(=O)c3cnc[nH]3)C2)cc1 (stereo unspecified)	inconclusive: 5.71%	
CCOC(=O)C1=C(CC)OC(N)=C(C#N)C1c1ccc(OC)c(C)c1OC (stereo unspecified)	inconclusive: 24.8%	
Cc1ccccc1NC(=O)OCCN1CCN(Cc2ccccc2)CCC1=O	inconclusive: 30.8%	
COc1ccc2oc(C(=O)OCC(=O)N(CCC#N)c3ccccc3)c(C)c2c1	inconclusive: 7.29%	
CCn1c(N2CCN(S(=O)(=O)c3ccccc3C(F)(F)F)CC2)nc2ccccc21	inconclusive: 28.9%	
COc1ccc(C(=O)Nc2cccc(/C(C)=N\NC(=O)c3ccoc3C)c2)cc1OC	inconclusive: 57%	
NC(=O)CC(NC(=O)Cc1ccc(Br)cc1)c1ccc(NCc2ccccn2)c([N+](=O)[O-])c1 (stereo unspecified)		inconclusive: 7.31 µM [activator, partial curve]
COc1ccc(CN2CCN(C(=O)c3ccc(CNS(=O)(=O)c4ccc(C)cc4)cc3)CC2)c(OC)c1OC		inconclusive: 18.4 µM [activator, partial curve]

Entries of single compounds, quoted from the list.
`Cc1cccc(C)c1NC(=O)C1CC(=O)N(C(C)C)C1` (stereo unspecified) is listed as lipid storage change, negative = inhibition: inconclusive: 19.9%
`O=S(=O)(c1cccs1)N1CCC2(CC1)OCCO2` is listed as Potency: inconclusive: 0.206 µM [activator, partial curve, poor fit]

Going on with the list:

Compound	lipid storage change, negative = inhibition	Potency
CCCN(CC1CC1)C(=O)CCc1nnc(C(OC)c2ccccc2)o1 (stereo unspecified)		inconclusive: 14.6 µM [falling, partial curve]
CCNc1ccc(C(=O)Nc2ccc3nc(C)sc3c2)cc1[N+](=O)[O-]	inconclusive: 149%	
S=C(Nc1cccc(Cl)c1)N1CCN(c2ccccn2)CC1		inconclusive: 29.1 µM [falling, partial curve, poor fit]
O=C(O)COn1c(-c2ccccc2)nc2ccc([N+](=O)[O-])cc21		inconclusive: 1.46 µM [cytotoxic, full curve]
O=C1CC(c2ccccc2)CC(O)=C1C=NCCc1ccccc1 (stereo unspecified)		inconclusive: 0.326 µM [falling, full curve, poor fit]
C#CCSc1nc(-c2cccs2)ccc1C#N	inconclusive: 33.2%	
CC(=O)Nc1ccc(NC(=S)NC(=O)/C=C/c2ccccc2)cc1	inconclusive: -2.19%	
O=C(NCc1ccco1)c1cc(C(=O)C2CC2)c[nH]1	inconclusive: 10.3%	
O=C(c1cc(-c2ccc(Cl)cc2)nc2ccccc12)N1CCC1	inconclusive: 3.55%	
CCOC(=O)c1[nH]c2ccccc2c1NC(=S)Nc1cc(C)ccc1C		inconclusive: 9.2 µM [activator, partial curve, poor fit]
COc1ccccc1NC(=O)CSc1ccc2nnc(-c3ccncc3)n2n1		inconclusive: 4.61 µM [falling, partial curve]
O=C(Nc1cccc2ccccc12)N1CCOCC1		inconclusive: 14.6 µM [activator, single point]
O=C(C/C=N/OCc1ccc(Cl)cc1)c1cnc(-c2ccccc2)s1	inconclusive: 17.7%	
CCOc1ccc(OCCSc2nc3ccccc3c(=O)[nH]2)cc1	inconclusive: 113%	
O=C(O)C1Sc2[nH]c(=O)sc2C2c3ccc(O)cc3OC(=O)C12 (stereo unspecified)		inconclusive: 1.3 µM [falling, full curve]
O=C1c2ccccc2C(=O)N1Cc1nn2c(-c3ccc(Cl)cc3)nnc2s1		inconclusive: 0.58 µM [activator, full curve]
CCOC(=O)Cc1csc(NC(=O)COc2ccc(N(C)S(=O)(=O)c3ccc(C)cc3)cc2)n1		inconclusive: 9.2 µM [falling, partial curve, poor fit]
Cc1cccc(NC(=O)COc2ccc(/C=C\c3[nH]c(=O)[nH]c(=O)c3[N+](=O)[O-])cc2)c1	inconclusive: -34.8%	
COc1cccc(-c2noc(C(C)n3nc(C)c([N+](=O)[O-])c3C)n2)c1 (stereo unspecified)	inconclusive: -56.7%	
